Laboratory results published in paper PMC5833712.
Results are given in words; binding and its absence hold for the method and conditions named. Binding seen in cells or lysates may run through a third protein. Some results given as binding are weak or reduced against the parent protein; the word gives no strength.

Protein sequences, listed by entry. Tags and fused reporters are not part of them.
UniProt Q09472: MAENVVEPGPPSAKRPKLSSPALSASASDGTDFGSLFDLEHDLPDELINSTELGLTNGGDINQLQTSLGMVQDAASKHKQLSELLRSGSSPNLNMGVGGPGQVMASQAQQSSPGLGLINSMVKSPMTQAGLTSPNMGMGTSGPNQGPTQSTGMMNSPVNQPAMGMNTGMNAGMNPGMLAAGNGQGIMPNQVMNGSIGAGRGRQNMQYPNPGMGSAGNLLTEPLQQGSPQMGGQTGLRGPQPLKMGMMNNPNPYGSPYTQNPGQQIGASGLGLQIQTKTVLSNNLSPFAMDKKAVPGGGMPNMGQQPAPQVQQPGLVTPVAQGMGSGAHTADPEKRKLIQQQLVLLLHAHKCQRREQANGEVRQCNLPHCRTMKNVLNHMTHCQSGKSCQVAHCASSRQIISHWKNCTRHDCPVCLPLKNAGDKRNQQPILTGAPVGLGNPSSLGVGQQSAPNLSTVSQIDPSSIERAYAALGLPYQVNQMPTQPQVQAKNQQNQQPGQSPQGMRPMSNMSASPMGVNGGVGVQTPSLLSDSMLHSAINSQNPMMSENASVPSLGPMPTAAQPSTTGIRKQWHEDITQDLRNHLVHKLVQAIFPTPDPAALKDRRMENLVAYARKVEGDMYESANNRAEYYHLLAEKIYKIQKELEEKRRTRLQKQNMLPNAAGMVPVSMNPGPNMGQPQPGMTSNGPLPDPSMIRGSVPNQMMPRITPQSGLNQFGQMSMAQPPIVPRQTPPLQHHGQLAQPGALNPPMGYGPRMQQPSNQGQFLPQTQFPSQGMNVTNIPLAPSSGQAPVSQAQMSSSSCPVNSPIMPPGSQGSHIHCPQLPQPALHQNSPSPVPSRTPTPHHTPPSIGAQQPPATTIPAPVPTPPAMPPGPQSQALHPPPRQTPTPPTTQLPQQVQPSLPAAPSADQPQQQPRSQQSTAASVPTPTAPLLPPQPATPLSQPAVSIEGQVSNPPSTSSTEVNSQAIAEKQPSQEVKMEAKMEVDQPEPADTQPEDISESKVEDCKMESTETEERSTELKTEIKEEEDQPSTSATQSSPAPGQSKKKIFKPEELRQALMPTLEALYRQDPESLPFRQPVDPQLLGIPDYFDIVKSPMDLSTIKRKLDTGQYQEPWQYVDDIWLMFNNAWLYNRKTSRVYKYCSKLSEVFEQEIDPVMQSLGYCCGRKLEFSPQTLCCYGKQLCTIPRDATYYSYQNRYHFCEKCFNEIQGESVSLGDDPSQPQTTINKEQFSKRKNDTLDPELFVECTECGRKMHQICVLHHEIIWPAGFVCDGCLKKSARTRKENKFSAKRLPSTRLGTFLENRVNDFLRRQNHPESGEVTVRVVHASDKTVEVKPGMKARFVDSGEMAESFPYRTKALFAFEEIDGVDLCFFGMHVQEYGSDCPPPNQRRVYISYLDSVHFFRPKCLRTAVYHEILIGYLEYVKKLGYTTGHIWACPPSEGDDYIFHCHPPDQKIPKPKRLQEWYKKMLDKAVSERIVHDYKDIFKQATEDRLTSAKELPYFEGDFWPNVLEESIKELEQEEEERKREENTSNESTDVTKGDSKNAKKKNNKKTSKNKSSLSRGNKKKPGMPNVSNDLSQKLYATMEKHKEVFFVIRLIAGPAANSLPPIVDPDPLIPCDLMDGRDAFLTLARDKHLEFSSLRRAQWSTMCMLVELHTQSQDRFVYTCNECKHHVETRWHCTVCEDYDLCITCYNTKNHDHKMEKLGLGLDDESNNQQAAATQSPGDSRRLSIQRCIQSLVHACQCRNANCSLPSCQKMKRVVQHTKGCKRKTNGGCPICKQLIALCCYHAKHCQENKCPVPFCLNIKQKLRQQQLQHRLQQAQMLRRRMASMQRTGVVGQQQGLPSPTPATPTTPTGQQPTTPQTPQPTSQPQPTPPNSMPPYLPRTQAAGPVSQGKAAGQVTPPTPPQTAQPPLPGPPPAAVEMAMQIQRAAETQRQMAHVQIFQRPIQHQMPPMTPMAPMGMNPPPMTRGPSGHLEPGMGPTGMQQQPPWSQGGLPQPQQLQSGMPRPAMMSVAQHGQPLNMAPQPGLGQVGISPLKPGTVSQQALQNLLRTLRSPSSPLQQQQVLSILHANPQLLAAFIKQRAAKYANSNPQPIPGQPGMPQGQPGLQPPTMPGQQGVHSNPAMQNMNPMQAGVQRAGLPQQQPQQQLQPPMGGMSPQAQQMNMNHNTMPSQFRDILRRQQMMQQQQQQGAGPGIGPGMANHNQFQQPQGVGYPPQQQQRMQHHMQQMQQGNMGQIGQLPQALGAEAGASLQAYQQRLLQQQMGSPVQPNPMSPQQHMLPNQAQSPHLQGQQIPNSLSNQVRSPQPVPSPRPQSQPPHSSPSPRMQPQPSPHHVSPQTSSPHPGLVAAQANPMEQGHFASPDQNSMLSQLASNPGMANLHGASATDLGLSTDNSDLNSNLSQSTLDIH
UniProt P03372: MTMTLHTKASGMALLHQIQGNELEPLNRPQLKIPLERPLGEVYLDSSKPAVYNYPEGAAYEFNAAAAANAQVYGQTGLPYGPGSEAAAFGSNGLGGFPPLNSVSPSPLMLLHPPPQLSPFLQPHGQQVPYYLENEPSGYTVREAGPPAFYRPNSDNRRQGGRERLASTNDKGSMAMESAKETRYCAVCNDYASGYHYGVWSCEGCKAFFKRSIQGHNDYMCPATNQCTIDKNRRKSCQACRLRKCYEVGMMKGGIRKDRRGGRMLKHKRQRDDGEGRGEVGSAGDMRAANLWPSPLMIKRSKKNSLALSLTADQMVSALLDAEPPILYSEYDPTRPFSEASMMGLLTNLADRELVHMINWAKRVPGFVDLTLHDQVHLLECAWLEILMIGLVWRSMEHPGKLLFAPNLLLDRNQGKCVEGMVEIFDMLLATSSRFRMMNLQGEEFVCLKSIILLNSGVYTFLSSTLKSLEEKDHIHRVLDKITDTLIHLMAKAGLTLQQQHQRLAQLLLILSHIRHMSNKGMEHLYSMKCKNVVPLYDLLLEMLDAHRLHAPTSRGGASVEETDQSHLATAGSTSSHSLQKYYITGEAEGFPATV
UniProt Q92731: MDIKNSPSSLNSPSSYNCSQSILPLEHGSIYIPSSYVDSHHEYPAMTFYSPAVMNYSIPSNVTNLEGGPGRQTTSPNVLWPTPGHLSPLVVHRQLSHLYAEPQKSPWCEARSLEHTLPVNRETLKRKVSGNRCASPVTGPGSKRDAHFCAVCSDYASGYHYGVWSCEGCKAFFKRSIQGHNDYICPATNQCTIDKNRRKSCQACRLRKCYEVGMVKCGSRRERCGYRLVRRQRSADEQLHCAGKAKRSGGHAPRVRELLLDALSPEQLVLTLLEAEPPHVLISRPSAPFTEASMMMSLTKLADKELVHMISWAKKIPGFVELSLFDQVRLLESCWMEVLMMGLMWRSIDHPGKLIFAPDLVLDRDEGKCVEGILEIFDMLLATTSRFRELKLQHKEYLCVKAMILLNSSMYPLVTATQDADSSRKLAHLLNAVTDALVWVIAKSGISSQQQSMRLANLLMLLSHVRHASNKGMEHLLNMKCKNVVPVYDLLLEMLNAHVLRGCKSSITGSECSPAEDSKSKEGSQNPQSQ

What was measured:
[1] = target: p300 (human (endogenous in A2780cis)) (UniProt Q09472); experiment: co-IP; p300 immunoprecipitated from lysates of A2780cis cells treated or not with 10 nM KB9520 for 1 h; blots for p300, SIRT1, ERβ
[2] = target: Estrogen receptor alpha (ERα), wild type (UniProt P03372); experiment: co-IP; p300:ERα association with and without KB9520 (Fig. S5); which protein was precipitated was not shown
[3] = target: Estrogen receptor beta (ERβ) (human (endogenous in A2780cis)) (UniProt Q92731); experiment: condition: only after knock-down of KDM6B (siRNA, 48 h); co-IP; ERβ immunoprecipitated from lysates of A2780cis cells transfected 48 h with KDM6B-specific siRNA, treated or not with 10 nM KB9520 for 2 h; blots for AcLys, ERβ, p300
[4] = target: Estrogen receptor beta (ERβ) (human (endogenous in A2780cis)) (UniProt Q92731); experiment: co-IP; ERβ immunoprecipitated (antibody, protein A-Sepharose, 1 h, 4 °C) from 1% NP-40 lysates (2 mg protein) of A2780cis cells treated or not with 10 nM KB9520 for 2 h; blots for AcLys, ERβ, p300; also cells with non-specific siRNA, SIRT1 siRNA or the SIRT1 inhibitor EX527

Substance | binding [1] | binding [2] | binding [3] | binding [4]
Estrogen receptor beta (ERβ) (from UniProt Q92731 1-530) | binds |  |  | 
p300 (from UniProt Q09472 1-2414) |  | binds | no binding | binds
